Values quoted from earlier work, collected in patent US20020165286A1, “Dermal anti-inflammatory composition” (priority 2000, published 2002).
For at least one compound, name, drawing or mass did not settle the structure.

Conditions: topical administration; cited from earlier work

CCC[C@@H]1C[C@@H](C(=O)N[C@@H]([C@H]2O[C@H](SC)[C@H](O)[C@@H](O)[C@H]2O)[C@H](C)Cl)N(C)C1 [Clindamycin]
Antibacterial: Yes
